{"source": "PubChem BioAssay AID1053208 (Peter MacCallum Cancer Centre, 2014)", "test": "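Genes whose silencing cuts survival of bone tumour cells only with doxorubicin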 (primary screen)", "system": "mouse osteosarcoma cells, early-passage culture from an engineered mouse model of fibroblastic bone tumour", "reagent": "siRNA pool against mouse genes, 40 nM", "time to read-out": "about 120 h (48 h before drug, then 72 h with drug)", "challenge": "doxorubicin 100 nM for 72 h, roughly 30-40% inhibitory dose", "read-out": "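Viability read as ATP luminescence after 72 h of 100 nM doxorubicin or none, duplicate wells averaged, scaled to non-targeting siRNA, then expressed as robust z-scores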", "scale": "viability z-score with doxorubicin: higher = more viable cells under doxorubicin; viability z-score without drug: higher = more viable cells with knock-down alone", "active means": "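Called active if knock-down leaves viability unchanged without drug (z within -2 to 2) but lowers it with doxorubicin (z at or under -2)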", "note": "In all, the deposit lists about 17,000 reagents; shown is a random part of them. 788 of them (4.7%) count as active. 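Calls rest on z-score classes alone; an extra cut-off of viability at most 70% of control was not applied to them.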 The numbers tell different reagents against one gene apart. Further read-outs or replicates are left out here."}
{"Gene":"Nle1 (notchless homolog 1)","pool no.":1,"combined z-score class":"no change with or without drug","viability z-score with doxorubicin":0.11,"viability z-score without drug":-0.67,"Call":"inactive"}
{"Gene":"Zfp740 (zinc finger protein 740)","pool no.":1,"combined z-score class":"no change with or without drug","viability z-score with doxorubicin":-0.22,"viability z-score without drug":0.34,"Call":"inactive"}
{"Gene":"Rhbdd2 (rhomboid domain containing 2)","pool no.":1,"combined z-score class":"no change with or without drug","viability z-score with doxorubicin":-0.67,"viability z-score without drug":0.51,"Call":"inactive"}
{"Gene":"Rhbdd2 (rhomboid domain containing 2)","pool no.":2,"combined z-score class":"no change with or without drug","viability z-score with doxorubicin":-1.35,"viability z-score without drug":-0.17,"Call":"inactive"}
{"Gene":"Stam","pool no.":1,"combined z-score class":"no change with or without drug","viability z-score with doxorubicin":-0.22,"viability z-score without drug":0.17,"Call":"inactive"}
{"Gene":"1110006O24Rik (RIKEN cDNA 1110006O24 gene)","pool no.":1,"combined z-score class":"no change with or without drug","viability z-score with doxorubicin":1.35,"viability z-score without drug":0,"Call":"inactive"}
{"Gene":"Caly (calcyon neuron-specific vesicular protein)","pool no.":1,"combined z-score class":"no change with or without drug","viability z-score with doxorubicin":-0.67,"viability z-score without drug":0.17,"Call":"inactive"}
{"Gene":"Triml1 (tripartite motif family-like 1)","pool no.":1,"combined z-score class":"no change with or without drug","viability z-score with doxorubicin":0.34,"viability z-score without drug":-0.17,"Call":"inactive"}
{"Gene":"Ccdc85a (coiled-coil domain containing 85A)","pool no.":1,"combined z-score class":"no change with or without drug","viability z-score with doxorubicin":-0.34,"viability z-score without drug":1.85,"Call":"inactive"}
{"Gene":"Slc26a3","pool no.":1,"combined z-score class":"no change with or without drug","viability z-score with doxorubicin":0.34,"viability z-score without drug":1.18,"Call":"inactive"}
{"Gene":"Cep15 (centrosomal protein 15)","pool no.":1,"combined z-score class":"no change with or without drug","viability z-score with doxorubicin":0.67,"viability z-score without drug":0.51,"Call":"inactive"}
{"Gene":"Cyp2a5 (cytochrome P450, family 2, subfamily a, polypeptide 5)","pool no.":1,"combined z-score class":"no change with or without drug","viability z-score with doxorubicin":-0.45,"viability z-score without drug":-0.34,"Call":"inactive"}
{"Gene":"Hhatl (hedgehog acyltransferase-like)","pool no.":1,"combined z-score class":"no change with or without drug","viability z-score with doxorubicin":0.9,"viability z-score without drug":0.84,"Call":"inactive"}
{"Gene":"Tas2r109 (taste receptor, type 2, member 109)","pool no.":1,"combined z-score class":"no change with or without drug","viability z-score with doxorubicin":1.91,"viability z-score without drug":1.18,"Call":"inactive"}
{"Gene":"Grpel2 (GrpE-like 2, mitochondrial)","pool no.":1,"combined z-score class":"no change with or without drug","viability z-score with doxorubicin":0.79,"viability z-score without drug":-0.34,"Call":"inactive"}
{"Gene":"Ak4 (adenylate kinase 4)","pool no.":1,"combined z-score class":"no change with or without drug","viability z-score with doxorubicin":0,"viability z-score without drug":-0.84,"Call":"inactive"}
{"Gene":"Pde6g (phosphodiesterase 6G, cGMP-specific, rod, gamma)","pool no.":1,"combined z-score class":"no change with or without drug","viability z-score with doxorubicin":-0.22,"viability z-score without drug":0.51,"Call":"inactive"}
{"Gene":"Uroc1 (urocanase domain containing 1)","pool no.":1,"combined z-score class":"no change with or without drug","viability z-score with doxorubicin":0.22,"viability z-score without drug":0.51,"Call":"inactive"}
{"Gene":"Bcdin3d (BCDIN3 domain containing)","pool no.":1,"combined z-score class":"no change with or without drug","viability z-score with doxorubicin":-1.57,"viability z-score without drug":-0.17,"Call":"inactive"}
{"Gene":"Eif2s1 (eukaryotic translation initiation factor 2, subunit 1 alpha)","pool no.":1,"combined z-score class":"low cell count with and without drug","viability z-score with doxorubicin":-4.27,"viability z-score without drug":-3.54,"Call":"inactive"}
{"Gene":"Polr3d (polymerase (RNA) III (DNA directed) polypeptide D)","pool no.":1,"combined z-score class":"no change with or without drug","viability z-score with doxorubicin":1.35,"viability z-score without drug":1.85,"Call":"inactive"}
{"Gene":"Fam120c (family with sequence similarity 120, member C)","pool no.":1,"combined z-score class":"no change with or without drug","viability z-score with doxorubicin":0,"viability z-score without drug":-0.51,"Call":"inactive"}
{"Gene":"Mtfr1 (mitochondrial fission regulator 1)","pool no.":1,"combined z-score class":"no change with or without drug","viability z-score with doxorubicin":0.67,"viability z-score without drug":1.69,"Call":"inactive"}
{"Gene":"Asb4 (ankyrin repeat and SOCS box-containing 4)","pool no.":1,"combined z-score class":"no change with or without drug","viability z-score with doxorubicin":-1.8,"viability z-score without drug":-0.17,"Call":"inactive"}
{"Gene":"Pon3 (paraoxonase 3)","pool no.":1,"combined z-score class":"no change with or without drug","viability z-score with doxorubicin":0.9,"viability z-score without drug":0.51,"Call":"inactive"}
{"Gene":"Tfap2c (transcription factor AP-2, gamma)","pool no.":1,"combined z-score class":"no change with or without drug","viability z-score with doxorubicin":1.57,"viability z-score without drug":1.85,"Call":"inactive"}
{"Gene":"Ptx3 (pentraxin related gene)","pool no.":1,"combined z-score class":"no change with or without drug","viability z-score with doxorubicin":-0.22,"viability z-score without drug":0.84,"Call":"inactive"}
{"Gene":"Slco1a6","pool no.":1,"combined z-score class":"no change with or without drug","viability z-score with doxorubicin":-0.45,"viability z-score without drug":-1.18,"Call":"inactive"}

Part of the list above, showing only “viability z-score with doxorubicin”.
Stam: -0.22
1110006O24Rik (RIKEN cDNA 1110006O24 gene): 1.35
Caly (calcyon neuron-specific vesicular protein): -0.67
Triml1 (tripartite motif family-like 1): 0.34
